PubChem BioAssay AID1159584 – Peter MacCallum Cancer Centre – 2016
The whole screen tested about 18,000 reagents; shown is a random part of them. Further read-outs or replicates are left out here. No sequences are given here. Not stated in the record: the amount of reagent, the time to read-out.

- Test: 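Genes that CDH1-null MCF10A cells selectively depend on to survive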 (primary screen)
- Cell system: human MCF10A breast epithelial cells, parental and CDH1-null
- Reagents: siRNA against human genes
- Measurement: 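Cell viability by CellTiter-Glo ATP luminescence, each line scaled to the mean of mock wells across plates, then CDH1-null over parental ratio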
- Direction: CDH1-null / parental viability ratio: higher = CDH1-null cells survive relatively better than parental; CDH1-null viability vs mock: higher = more viable CDH1-null cells
- Units: CDH1-null viability vs mock in fraction of mock

For RPL17 the deposit lists CDH1-null / parental viability ratio 1.19; CDH1-null viability vs mock 1.02.
For SLC6A7, the entry reads CDH1-null / parental viability ratio 1.35; CDH1-null viability vs mock 0.92.
Knock-down of MMP7 resulted in: CDH1-null / parental viability ratio 1.33; CDH1-null viability vs mock 0.89.
Silencing of NXPH1 resulted in: CDH1-null / parental viability ratio 0.92; CDH1-null viability vs mock 0.74.
Knock-down of ARHGEF18 gave: CDH1-null / parental viability ratio 1.28; CDH1-null viability vs mock 0.64.
After knock-down of EFNA4, the record shows CDH1-null / parental viability ratio 0.92; CDH1-null viability vs mock 0.76.
Silencing of SYTL1 gave: CDH1-null / parental viability ratio 0.78; CDH1-null viability vs mock 0.5.
Depletion of KXD1 resulted in: CDH1-null / parental viability ratio 1; CDH1-null viability vs mock 0.44.
Depletion of AQP4 resulted in: CDH1-null / parental viability ratio 1.14; CDH1-null viability vs mock 0.74.
Depletion of B2M came out at: CDH1-null / parental viability ratio 0.81; CDH1-null viability vs mock 0.68.
With knock-down of ZNF589 the results were CDH1-null / parental viability ratio 0.96; CDH1-null viability vs mock 0.73.
H2BC9 showed CDH1-null / parental viability ratio 1.21; CDH1-null viability vs mock 1.11.
With knock-down of ABL2 the results were CDH1-null / parental viability ratio 0.96; CDH1-null viability vs mock 0.88.
After knock-down of CTDP1, the screen gave CDH1-null / parental viability ratio 1.33; CDH1-null viability vs mock 0.8.
Depletion of PSMC3IP resulted in: CDH1-null / parental viability ratio 0.89; CDH1-null viability vs mock 0.55.
IGSF10 scored CDH1-null / parental viability ratio 1.26; CDH1-null viability vs mock 1.15.
ABHD14B gave CDH1-null / parental viability ratio 0.9; CDH1-null viability vs mock 0.9.
Knock-down of GRAMD1C resulted in: CDH1-null / parental viability ratio 0.9; CDH1-null viability vs mock 0.52.
With knock-down of LIMK2, the record shows CDH1-null / parental viability ratio 0.86; CDH1-null viability vs mock 0.64.
ZC3H4 showed CDH1-null / parental viability ratio 0.89; CDH1-null viability vs mock 0.66.
After knock-down of CSRP3, the record shows CDH1-null / parental viability ratio 0.82; CDH1-null viability vs mock 0.62.
After knock-down of CLDN10 the results were CDH1-null / parental viability ratio 0.98; CDH1-null viability vs mock 0.94.
After knock-down of ATP1B2, the screen gave CDH1-null / parental viability ratio 1.09; CDH1-null viability vs mock 0.61.
Knock-down of ATF7IP came out at: CDH1-null / parental viability ratio 0.87; CDH1-null viability vs mock 0.7.
